Measurements as given in US20210025890A1 (Genentech, published 2021).
These are yes or no findings as the source states them, for the method shown. Some results given as binding are weak or reduced against the parent protein; the word gives no strength.

Key:
intact human FGF21 [1] = target: T1, intact human FGF21 (human, UniProt Q9NSA1 29-209); assay: Simoa bead sandwich assay, mAb4 beads, tested as detector
T1 construct: also called full-length, uncleaved FGF21; iFGF21
T1 sequence: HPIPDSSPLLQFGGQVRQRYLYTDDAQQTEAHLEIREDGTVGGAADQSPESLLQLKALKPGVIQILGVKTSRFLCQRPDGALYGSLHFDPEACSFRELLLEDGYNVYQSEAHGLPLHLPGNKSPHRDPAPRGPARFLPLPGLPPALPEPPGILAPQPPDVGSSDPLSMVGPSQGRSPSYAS

intact human FGF21 [2] = target: T1, intact human FGF21; assay: sandwich ELISA, mAb4 or mAb9 capture, mAb11 detector (FIG. 2)
intact human FGF21 [3] = target: T1, intact human FGF21; assay: pairwise sandwich ELISA, intact FGF21; capture mAb11, detector BIO-4 (biotinylated mAb4); XX: OD > 1
intact human FGF21 [4] = target: T1, intact human FGF21; assay: pairwise sandwich ELISA, intact FGF21; capture mAb11, detector BIO-9 (biotinylated mAb9); XX: OD > 1
intact human FGF21 [5] = target: T1, intact human FGF21; assay: pairwise sandwich ELISA, intact FGF21; capture mAb11, detector BIO-13 (biotinylated mAb13); X: OD < 1
intact human FGF21 [6] = target: T1, intact human FGF21; assay: pairwise sandwich ELISA, intact FGF21; capture mAb11, detector BAF2539 (biotinylated goat pAb); XX: OD > 1
intact human FGF21 [7] = target: T1, intact human FGF21; assay: pairwise sandwich ELISA, 653 pg/mL FGF21, average of intact and FAP-cleaved FGF21; capture mAb11, detector BIO-4; XX: OD > 1.5
intact human FGF21 [8] = target: T1, intact human FGF21; assay: pairwise sandwich ELISA, 653 pg/mL FGF21, average of intact and FAP-cleaved FGF21; capture mAb11, detector BIO-15; XX: OD > 1.5
intact human FGF21 [9] = target: T1, intact human FGF21; assay: pairwise sandwich ELISA, intact FGF21; capture mAb9, detector BIO-1 (biotinylated mAb1); XX: OD > 1
intact human FGF21 [10] = target: T1, intact human FGF21; assay: pairwise sandwich ELISA, intact FGF21; capture mAb9, detector BIO-10 (biotinylated mAb10); XX: OD > 1
intact human FGF21 [11] = target: T1, intact human FGF21; assay: pairwise sandwich ELISA, intact FGF21; capture mAb9, detector BIO-11 (biotinylated mAb11); XX: OD > 1
intact human FGF21 [12] = target: T1, intact human FGF21; assay: pairwise sandwich ELISA, intact FGF21; capture mAb9, detector BAF2539 (biotinylated goat pAb); XX: OD > 1
intact human FGF21 [13] = target: T1, intact human FGF21; assay: pairwise sandwich ELISA, 653 pg/mL FGF21, average of intact and FAP-cleaved FGF21; capture mAb9, detector BIO-11; XX: OD > 1.5
intact human FGF21 [14] = target: T1, intact human FGF21; assay: pairwise sandwich ELISA, 653 pg/mL FGF21, average of intact and FAP-cleaved FGF21; capture mAb9, detector BIO-15; XX: OD > 1.5
intact human FGF21 [15] = target: T1, intact human FGF21; assay: pairwise sandwich ELISA, 653 pg/mL FGF21, average of intact and FAP-cleaved FGF21; capture mAb9, detector BIO-16; X: 0.5 < OD < 1.5
intact human FGF21 [16] = target: T1, intact human FGF21; assay: total FGF21 sandwich ELISA, mAb4 capture and mAb15 detector
intact human FGF21 [17] = target: T1, intact human FGF21; assay: Simoa bead sandwich assay, mAb4 beads and biotinylated mAb15
intact human FGF21 [18] = target: T1, intact human FGF21; assay: Simoa bead sandwich assay, mAb4 beads and 0.8 µg/mL biotinylated mAb15
intact human FGF21 [19] = target: T1, intact human FGF21; assay: pairwise sandwich ELISA, intact FGF21; capture mAb4, detector BIO-1 (biotinylated mAb1); XX: OD > 1
intact human FGF21 [20] = target: T1, intact human FGF21; assay: pairwise sandwich ELISA, intact FGF21; capture mAb4, detector BIO-10 (biotinylated mAb10); XX: OD > 1
intact human FGF21 [21] = target: T1, intact human FGF21; assay: pairwise sandwich ELISA, intact FGF21; capture mAb4, detector BIO-11 (biotinylated mAb11); XX: OD > 1
intact human FGF21 [22] = target: T1, intact human FGF21; assay: pairwise sandwich ELISA, intact FGF21; capture mAb4, detector BAF2539 (biotinylated goat pAb); XX: OD > 1
intact human FGF21 [23] = target: T1, intact human FGF21; assay: pairwise sandwich ELISA, 653 pg/mL FGF21, average of intact and FAP-cleaved FGF21; capture mAb4, detector BIO-11; XX: OD > 1.5
intact human FGF21 [24] = target: T1, intact human FGF21; assay: pairwise sandwich ELISA, 653 pg/mL FGF21, average of intact and FAP-cleaved FGF21; capture mAb4, detector BIO-15; XX: OD > 1.5
intact human FGF21 [25] = target: T1, intact human FGF21; assay: pairwise sandwich ELISA, 653 pg/mL FGF21, average of intact and FAP-cleaved FGF21; capture mAb4, detector BIO-16; X: 0.5 < OD < 1.5
intact human FGF21 [26] = target: T1, intact human FGF21; assay: pairwise sandwich ELISA, 653 pg/mL FGF21, average of intact and FAP-cleaved FGF21; capture mAb15, detector BIO-4; XX: OD > 1.5
intact human FGF21 [27] = target: T1, intact human FGF21; assay: pairwise sandwich ELISA, 653 pg/mL FGF21, average of intact and FAP-cleaved FGF21; capture mAb15, detector BIO-11; X: 0.5 < OD < 1.5

Measured: binding

B1: mAb11 (antibody, V domains shown)
VH: QVQLQQSGAELARPGASVKLSCKASGYTFTNYGISWVKQRTGQGLEWIGEIYPRSDNTYYNEKFKGKATLTADKSSSTAYMELRSLTSEDSAVYFCTRSDYGFFDYWGQGTTLTVSS
VL: QIVLTQSPALMSASPGERVTMTCSAGSSVSYMYWYQQKPRSSPKPWIYLTSNLASGVPARFSGSGSGTSYSLTISSMEAEDAATYYCQQWSSNPRTFGGGTKLEIKR
notes: Biotinylated when used as detector; also called BIO-11 (biotinylated); antibody 11
binds: intact human FGF21 [1] | intact human FGF21 [2] | intact human FGF21 [3] | intact human FGF21 [4] | intact human FGF21 [5] | intact human FGF21 [6] | intact human FGF21 [7] | intact human FGF21 [8]

B2: mAb9 (antibody, V domains shown)
VH: EVQLQQSGPELVKPGASVKIPCKASGYTFTDYYMGWVKQSHGKSLEWIGDINPNNGVTINNQNFKGKATLTVDKSSSTAYMELRSLASEDTAVYYCTRGYGGALDYWGQGTSVTVSS
VL: DIQMTQSPASLSASVGETVIITCRASENIYSYLAWYQQKQGKSPQLLVYNIRTLAEGVPSRFSGSGSGTQFSLKINSLQPEDFGSYYCQHHYDSPWTFGGGTKLEIKR
notes: also called BIO-9 (biotinylated); antibody 9
binds: intact human FGF21 [2] | intact human FGF21 [9] | intact human FGF21 [10] | intact human FGF21 [11] | intact human FGF21 [12] | intact human FGF21 [13] | intact human FGF21 [14] | intact human FGF21 [15]

B3: mAb4 (antibody, V domains shown)
VH: EVKLVESGGDLVKPGGSLKLSCAASGFTFSSYGMSWVRQTPDKRLEWVATISTGGGYTYYPDSVKGRFTISRDNAKNTLYLQMSSLRSEDTAMYYCARHDLVDWYFDVWGTGTTVTVSS
VL: QIVLTQSPAIMSAPLGERVTMTCTASSSVSSSYLHWYQQKPGSSPKVWIYRTTNLASGVPTRFSGSGSGTSYSLTISSMEAEDAATYYCHQYHRSPPTWTFGGGTKLEIKR
notes: Biotinylated when used as detector, coupled to beads in the Simoa assays; also called BIO-4 (biotinylated); antibody 4
binds: intact human FGF21 [16] | intact human FGF21 [17] | intact human FGF21 [2] | intact human FGF21 [18] | intact human FGF21 [19] | intact human FGF21 [20] | intact human FGF21 [21] | intact human FGF21 [22] | intact human FGF21 [23] | intact human FGF21 [24] | intact human FGF21 [25]

B4: mAb15 (antibody, V domains shown)
VH: QVQLIQSGPGLVQPSQSLSITCTVSGFSLTGYAIHWVRQSPGKGLEWLGMIWKSGNTDYNAAFMSRLSITKDNSKSQVFFKMNSLQADDTAIYYCARNGYDYEFVYWGQGTLVTVSA
VL: DVLMTQTPLSLPVSLGDQASISCRSSQIIVHNNGDTYLEWYLQKPGQSPKLLIYKISNRFSGVPDRFSGSGSGTDFTLKISRVEAEDLGVYYCFQGSHVPYTFGGGTKLEIKR
notes: Biotinylated when used as detector; also called BIO-15 (biotinylated); mAb15-Biotin
binds: intact human FGF21 [1] | intact human FGF21 [16] | intact human FGF21 [17] | intact human FGF21 [18] | intact human FGF21 [26] | intact human FGF21 [27]
